Results deposited as PubChem BioAssay AID1259405 (NCATS, 2018).

- Aim: 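Silenced genes that increase secreted GFP made by CHO cells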 (primary screen)
- Cell system: Chinese hamster CHO-K1 ovary cells with stable secreted eGFP expression
- Reagents: single siRNA against mouse genes, 0.8 pmol siRNA per well (2 µl of 400 nM stock)
- Duration: 3 days
- Measurement: 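Percent of the per-plate non-targeting control median for intracellular GFP per well by laser scanning cytometry and for cell viability by ATP luminescence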
- Direction: GFP, % of control: higher = more GFP per well, higher productivity
- Hit rule: 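Called active when intracellular GFP, relative to negative control, is at or above 120%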
Shown is an unselected part of about 50,000 reagents. About 4,000 of all reagents (8%) were called active. 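Mouse siRNA library applied to hamster cells; one well for each siRNA.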 Not all columns of the deposit are shown. No sequences are given here.

GFP, % of control, by gene and reagent
Vsnl1: SID363582461 151 active; SID363584221 97.1 inactive; SID363589756 151 active; SID363589774 84.1 inactive; SID363589775 79.7 inactive
Ms4a2: SID363568862 68 inactive; SID363576254 129 active; SID363579070 45.2 inactive
Tcfl5: SID363573707 70 inactive; SID363581451 59.1 inactive; SID363583915 101 inactive
Apbb2: SID363546754 68.7 inactive; SID363548510 99.1 inactive; SID363560688 58.9 inactive
Efhd2: SID363539620 70.1 inactive; SID363560921 59 inactive; SID363565011 80.7 inactive
Syvn1: SID363541616 63.7 inactive; SID363553208 38.1 inactive; SID363566532 76 inactive
4931429L15Rik: SID363542610 42.8 inactive; SID363552101 43.8 inactive; SID363559706 42 inactive
Stra8: SID363556322 88.9 inactive; SID363586772 70.2 inactive; SID363588880 140 active
Cbr3: SID363575227 79.5 inactive; SID363580859 86.9 inactive; SID363582971 58.9 inactive
Tff2: SID363541825 96.3 inactive; SID363553417 83.3 inactive; SID363566741 86 inactive
Sfxn1: SID363569906 88.9 inactive; SID363576946 37.9 inactive; SID363578354 110 inactive

Taken from above.
Result of Vsnl1 [SID363584221] in “outcome”: inactive
Efhd2 [SID363539620], GFP, % of control → 70.1
Entry of Stra8 [SID363588880] under “outcome”: active
Vsnl1 [SID363589756], GFP, % of control = 151
For “outcome”, Ms4a2 [SID363579070] shows inactive
Vsnl1 [SID363582461], GFP, % of control = 151

The listing continues:
GFP, % of control, by gene and reagent
Dnajc9: SID363572548 81.5 inactive; SID363577828 73.2 inactive; SID363582052 99.7 inactive
Or52i2: SID363545045 80 inactive; SID363551373 108 inactive; SID363557922 53.7 inactive
Nkain1: SID363543728 82.3 inactive; SID363551464 88.9 inactive; SID363559069 99.6 inactive
App: SID363541438 81.9 inactive; SID363556065 115 inactive; SID363566354 70.8 inactive
Rhbdd1: SID363547464 63.5 inactive; SID363558233 63.2 inactive; SID363559991 75.2 inactive
Zdhhc7: SID363556677 71 inactive; SID363563581 108 inactive; SID363587127 84.4 inactive
Sertad1: SID363554830 203 active; SID363568277 78.4 inactive; SID363586336 92.2 inactive
Ppargc1a: SID363584491 74.5 inactive; SID363589521 108 inactive
